Laboratory results taken from the supplement of paper PMC7661543.
The effect of the compound repeats well; differences between the knockouts mostly do not.

Test system: MDA-MB-231
Assay: relative cell number vs DMSO control (72 h) (% of DMSO); higher = less growth inhibition (more cells)
Description: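 QMAP-Seq: a pool of 5 breast cancer cell lines (ZR-75-1, SKBR3, HCC-38, MDA-MB-231, BT-20), each carrying 12 doxycycline-inducible Cas9 sgRNA perturbations (11 knockouts plus non-targeting sgNT), was treated with compounds for 72 h at four 10-fold doses (10 nM-10 uM or 1 nM-1 uM range). Barcodes were amplified and sequenced, and cell number was interpolated from 293T spike-in standard curves. The result is expressed as % of the median of DMSO wells. Two biological replicates.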

O=C1CCC(N2C(=O)c3ccccc3C2=O)C(=O)N1 (configuration not stated) [Thalidomide]
Details	relative cell number
sgRNA knockout: sgATF3, 10 nM	105
sgRNA knockout: sgATF3, 100 nM	101
sgRNA knockout: sgATF3, 1000 nM	107
sgRNA knockout: sgATF3, 10000 nM	118
sgRNA knockout: sgATF4, 10 nM	152
sgRNA knockout: sgATF4, 100 nM	94.8
sgRNA knockout: sgATF4, 1000 nM	137
sgRNA knockout: sgATF4, 10000 nM	148
sgRNA knockout: sgATF6, 10 nM	101
sgRNA knockout: sgATF6, 100 nM	83.1
sgRNA knockout: sgATF6, 1000 nM	102.7
sgRNA knockout: sgATF6, 10000 nM	119
sgRNA knockout: sgATG7, 10 nM	100
sgRNA knockout: sgATG7, 100 nM	102
sgRNA knockout: sgATG7, 1000 nM	93.4
sgRNA knockout: sgATG7, 10000 nM	110
sgRNA knockout: sgERN1, 10 nM	103
sgRNA knockout: sgERN1, 100 nM	84.2
sgRNA knockout: sgERN1, 1000 nM	122
sgRNA knockout: sgERN1, 10000 nM	121
sgRNA knockout: sgHSF1, 10 nM	114
sgRNA knockout: sgHSF1, 100 nM	84.2
sgRNA knockout: sgHSF1, 1000 nM	89.8
sgRNA knockout: sgHSF1, 10000 nM	123
sgRNA knockout: sgHSF2, 10 nM	105
sgRNA knockout: sgHSF2, 100 nM	97.9
sgRNA knockout: sgHSF2, 1000 nM	116
sgRNA knockout: sgHSF2, 10000 nM	104
sgRNA knockout: sgKEAP1, 10 nM	91.9
sgRNA knockout: sgKEAP1, 100 nM	96
sgRNA knockout: sgKEAP1, 1000 nM	104
sgRNA knockout: sgKEAP1, 10000 nM	105
sgRNA knockout: sgNFE2L2, 10 nM	130
sgRNA knockout: sgNFE2L2, 100 nM	88.4
sgRNA knockout: sgNFE2L2, 1000 nM	129
sgRNA knockout: sgNFE2L2, 10000 nM	141
sgRNA knockout: sgSLC35F2, 10 nM	97.1
sgRNA knockout: sgSLC35F2, 100 nM	65.3
sgRNA knockout: sgSLC35F2, 1000 nM	108
sgRNA knockout: sgSLC35F2, 10000 nM	124
sgRNA knockout: sgXBP1, 10 nM	104
sgRNA knockout: sgXBP1, 100 nM	79
sgRNA knockout: sgXBP1, 1000 nM	118
sgRNA knockout: sgXBP1, 10000 nM	149

CN(C)c1cc(NC(=O)CNC(C)(C)C)c(O)c2c1C[C@H]1C[C@H]3[C@H](N(C)C)C(O)=C(C(N)=O)C(=O)[C@@]3(O)C(O)=C1C2=O [Tigecycline]
Details	relative cell number
sgRNA knockout: sgATF3, 10 nM	110
sgRNA knockout: sgATF3, 100 nM	96.5
sgRNA knockout: sgATF3, 1000 nM	107
sgRNA knockout: sgATF3, 10000 nM	110
sgRNA knockout: sgATF4, 10 nM	99.2
sgRNA knockout: sgATF4, 100 nM	106
sgRNA knockout: sgATF4, 1000 nM	116
sgRNA knockout: sgATF4, 10000 nM	107
sgRNA knockout: sgATF6, 10 nM	82.5
sgRNA knockout: sgATF6, 100 nM	114
sgRNA knockout: sgATF6, 1000 nM	114
sgRNA knockout: sgATF6, 10000 nM	98.3
sgRNA knockout: sgATG7, 10 nM	86.3
sgRNA knockout: sgATG7, 100 nM	100
sgRNA knockout: sgATG7, 1000 nM	91.9
sgRNA knockout: sgATG7, 10000 nM	90.79
sgRNA knockout: sgERN1, 10 nM	106
sgRNA knockout: sgERN1, 100 nM	99.8
sgRNA knockout: sgERN1, 1000 nM	107
sgRNA knockout: sgERN1, 10000 nM	143
sgRNA knockout: sgHSF1, 10 nM	106
sgRNA knockout: sgHSF1, 100 nM	79.7
sgRNA knockout: sgHSF1, 1000 nM	85.2
sgRNA knockout: sgHSF1, 10000 nM	86.7
sgRNA knockout: sgHSF2, 10 nM	99.9
sgRNA knockout: sgHSF2, 100 nM	108
sgRNA knockout: sgHSF2, 1000 nM	100
sgRNA knockout: sgHSF2, 10000 nM	65.3
sgRNA knockout: sgKEAP1, 10 nM	98.2
sgRNA knockout: sgKEAP1, 100 nM	107
sgRNA knockout: sgKEAP1, 1000 nM	89.1
sgRNA knockout: sgKEAP1, 10000 nM	97.4
sgRNA knockout: sgNFE2L2, 10 nM	102
sgRNA knockout: sgNFE2L2, 100 nM	107
sgRNA knockout: sgNFE2L2, 1000 nM	93.4
sgRNA knockout: sgNFE2L2, 10000 nM	71.5
sgRNA knockout: sgSLC35F2, 10 nM	108
sgRNA knockout: sgSLC35F2, 100 nM	106
sgRNA knockout: sgSLC35F2, 1000 nM	121
sgRNA knockout: sgSLC35F2, 10000 nM	110
sgRNA knockout: sgXBP1, 10 nM	97
sgRNA knockout: sgXBP1, 100 nM	107
sgRNA knockout: sgXBP1, 1000 nM	112
sgRNA knockout: sgXBP1, 10000 nM	99.2

CC[C@@]1(O)C(=O)OCc2c1cc1n(c2=O)Cc2cc3c(CN(C)C)c(O)ccc3nc2-1 [Topotecan]
Details	relative cell number
sgRNA knockout: sgATF3, 10 nM	71.7
sgRNA knockout: sgATF3, 100 nM	22.8
sgRNA knockout: sgATF3, 1000 nM	11.2
sgRNA knockout: sgATF3, 10000 nM	7.9
sgRNA knockout: sgATF4, 10 nM	84.8
sgRNA knockout: sgATF4, 100 nM	26.2
sgRNA knockout: sgATF4, 1000 nM	16.1
sgRNA knockout: sgATF4, 10000 nM	8.85
sgRNA knockout: sgATF6, 10 nM	86.3
sgRNA knockout: sgATF6, 100 nM	20.6
sgRNA knockout: sgATF6, 1000 nM	19.1
sgRNA knockout: sgATF6, 10000 nM	8.65
sgRNA knockout: sgATG7, 10 nM	75.2
sgRNA knockout: sgATG7, 100 nM	22.4
sgRNA knockout: sgATG7, 1000 nM	14.6
sgRNA knockout: sgATG7, 10000 nM	5.38
sgRNA knockout: sgERN1, 10 nM	74.5
sgRNA knockout: sgERN1, 100 nM	24.9
sgRNA knockout: sgERN1, 1000 nM	16.3
sgRNA knockout: sgERN1, 10000 nM	8.99
sgRNA knockout: sgHSF1, 10 nM	67.4
sgRNA knockout: sgHSF1, 100 nM	20.9
sgRNA knockout: sgHSF1, 1000 nM	17.8
sgRNA knockout: sgHSF1, 10000 nM	10.1
sgRNA knockout: sgHSF2, 10 nM	74.1
sgRNA knockout: sgHSF2, 100 nM	21.4
sgRNA knockout: sgHSF2, 1000 nM	18.3
sgRNA knockout: sgHSF2, 10000 nM	4.6
sgRNA knockout: sgKEAP1, 10 nM	72
sgRNA knockout: sgKEAP1, 100 nM	26.5
sgRNA knockout: sgKEAP1, 1000 nM	13.3
sgRNA knockout: sgKEAP1, 10000 nM	8.94
sgRNA knockout: sgNFE2L2, 10 nM	65.4
sgRNA knockout: sgNFE2L2, 100 nM	22.1
sgRNA knockout: sgNFE2L2, 1000 nM	12.7
sgRNA knockout: sgNFE2L2, 10000 nM	9.58
sgRNA knockout: sgSLC35F2, 10 nM	69.5
sgRNA knockout: sgSLC35F2, 100 nM	22.2
sgRNA knockout: sgSLC35F2, 1000 nM	14.8
sgRNA knockout: sgSLC35F2, 10000 nM	9.15
sgRNA knockout: sgXBP1, 10 nM	81.56
sgRNA knockout: sgXBP1, 100 nM	26.5
sgRNA knockout: sgXBP1, 1000 nM	15.2
sgRNA knockout: sgXBP1, 10000 nM	5.8
